# These are yes or no findings as the source states them, for the method shown. Some entries that bind do so weakly or less than the wild type.
# Amino acid sequences for entries named in this document (tags omitted). Residues count along the entry.
# UniProt Q9Y6R7, residues 24-5405: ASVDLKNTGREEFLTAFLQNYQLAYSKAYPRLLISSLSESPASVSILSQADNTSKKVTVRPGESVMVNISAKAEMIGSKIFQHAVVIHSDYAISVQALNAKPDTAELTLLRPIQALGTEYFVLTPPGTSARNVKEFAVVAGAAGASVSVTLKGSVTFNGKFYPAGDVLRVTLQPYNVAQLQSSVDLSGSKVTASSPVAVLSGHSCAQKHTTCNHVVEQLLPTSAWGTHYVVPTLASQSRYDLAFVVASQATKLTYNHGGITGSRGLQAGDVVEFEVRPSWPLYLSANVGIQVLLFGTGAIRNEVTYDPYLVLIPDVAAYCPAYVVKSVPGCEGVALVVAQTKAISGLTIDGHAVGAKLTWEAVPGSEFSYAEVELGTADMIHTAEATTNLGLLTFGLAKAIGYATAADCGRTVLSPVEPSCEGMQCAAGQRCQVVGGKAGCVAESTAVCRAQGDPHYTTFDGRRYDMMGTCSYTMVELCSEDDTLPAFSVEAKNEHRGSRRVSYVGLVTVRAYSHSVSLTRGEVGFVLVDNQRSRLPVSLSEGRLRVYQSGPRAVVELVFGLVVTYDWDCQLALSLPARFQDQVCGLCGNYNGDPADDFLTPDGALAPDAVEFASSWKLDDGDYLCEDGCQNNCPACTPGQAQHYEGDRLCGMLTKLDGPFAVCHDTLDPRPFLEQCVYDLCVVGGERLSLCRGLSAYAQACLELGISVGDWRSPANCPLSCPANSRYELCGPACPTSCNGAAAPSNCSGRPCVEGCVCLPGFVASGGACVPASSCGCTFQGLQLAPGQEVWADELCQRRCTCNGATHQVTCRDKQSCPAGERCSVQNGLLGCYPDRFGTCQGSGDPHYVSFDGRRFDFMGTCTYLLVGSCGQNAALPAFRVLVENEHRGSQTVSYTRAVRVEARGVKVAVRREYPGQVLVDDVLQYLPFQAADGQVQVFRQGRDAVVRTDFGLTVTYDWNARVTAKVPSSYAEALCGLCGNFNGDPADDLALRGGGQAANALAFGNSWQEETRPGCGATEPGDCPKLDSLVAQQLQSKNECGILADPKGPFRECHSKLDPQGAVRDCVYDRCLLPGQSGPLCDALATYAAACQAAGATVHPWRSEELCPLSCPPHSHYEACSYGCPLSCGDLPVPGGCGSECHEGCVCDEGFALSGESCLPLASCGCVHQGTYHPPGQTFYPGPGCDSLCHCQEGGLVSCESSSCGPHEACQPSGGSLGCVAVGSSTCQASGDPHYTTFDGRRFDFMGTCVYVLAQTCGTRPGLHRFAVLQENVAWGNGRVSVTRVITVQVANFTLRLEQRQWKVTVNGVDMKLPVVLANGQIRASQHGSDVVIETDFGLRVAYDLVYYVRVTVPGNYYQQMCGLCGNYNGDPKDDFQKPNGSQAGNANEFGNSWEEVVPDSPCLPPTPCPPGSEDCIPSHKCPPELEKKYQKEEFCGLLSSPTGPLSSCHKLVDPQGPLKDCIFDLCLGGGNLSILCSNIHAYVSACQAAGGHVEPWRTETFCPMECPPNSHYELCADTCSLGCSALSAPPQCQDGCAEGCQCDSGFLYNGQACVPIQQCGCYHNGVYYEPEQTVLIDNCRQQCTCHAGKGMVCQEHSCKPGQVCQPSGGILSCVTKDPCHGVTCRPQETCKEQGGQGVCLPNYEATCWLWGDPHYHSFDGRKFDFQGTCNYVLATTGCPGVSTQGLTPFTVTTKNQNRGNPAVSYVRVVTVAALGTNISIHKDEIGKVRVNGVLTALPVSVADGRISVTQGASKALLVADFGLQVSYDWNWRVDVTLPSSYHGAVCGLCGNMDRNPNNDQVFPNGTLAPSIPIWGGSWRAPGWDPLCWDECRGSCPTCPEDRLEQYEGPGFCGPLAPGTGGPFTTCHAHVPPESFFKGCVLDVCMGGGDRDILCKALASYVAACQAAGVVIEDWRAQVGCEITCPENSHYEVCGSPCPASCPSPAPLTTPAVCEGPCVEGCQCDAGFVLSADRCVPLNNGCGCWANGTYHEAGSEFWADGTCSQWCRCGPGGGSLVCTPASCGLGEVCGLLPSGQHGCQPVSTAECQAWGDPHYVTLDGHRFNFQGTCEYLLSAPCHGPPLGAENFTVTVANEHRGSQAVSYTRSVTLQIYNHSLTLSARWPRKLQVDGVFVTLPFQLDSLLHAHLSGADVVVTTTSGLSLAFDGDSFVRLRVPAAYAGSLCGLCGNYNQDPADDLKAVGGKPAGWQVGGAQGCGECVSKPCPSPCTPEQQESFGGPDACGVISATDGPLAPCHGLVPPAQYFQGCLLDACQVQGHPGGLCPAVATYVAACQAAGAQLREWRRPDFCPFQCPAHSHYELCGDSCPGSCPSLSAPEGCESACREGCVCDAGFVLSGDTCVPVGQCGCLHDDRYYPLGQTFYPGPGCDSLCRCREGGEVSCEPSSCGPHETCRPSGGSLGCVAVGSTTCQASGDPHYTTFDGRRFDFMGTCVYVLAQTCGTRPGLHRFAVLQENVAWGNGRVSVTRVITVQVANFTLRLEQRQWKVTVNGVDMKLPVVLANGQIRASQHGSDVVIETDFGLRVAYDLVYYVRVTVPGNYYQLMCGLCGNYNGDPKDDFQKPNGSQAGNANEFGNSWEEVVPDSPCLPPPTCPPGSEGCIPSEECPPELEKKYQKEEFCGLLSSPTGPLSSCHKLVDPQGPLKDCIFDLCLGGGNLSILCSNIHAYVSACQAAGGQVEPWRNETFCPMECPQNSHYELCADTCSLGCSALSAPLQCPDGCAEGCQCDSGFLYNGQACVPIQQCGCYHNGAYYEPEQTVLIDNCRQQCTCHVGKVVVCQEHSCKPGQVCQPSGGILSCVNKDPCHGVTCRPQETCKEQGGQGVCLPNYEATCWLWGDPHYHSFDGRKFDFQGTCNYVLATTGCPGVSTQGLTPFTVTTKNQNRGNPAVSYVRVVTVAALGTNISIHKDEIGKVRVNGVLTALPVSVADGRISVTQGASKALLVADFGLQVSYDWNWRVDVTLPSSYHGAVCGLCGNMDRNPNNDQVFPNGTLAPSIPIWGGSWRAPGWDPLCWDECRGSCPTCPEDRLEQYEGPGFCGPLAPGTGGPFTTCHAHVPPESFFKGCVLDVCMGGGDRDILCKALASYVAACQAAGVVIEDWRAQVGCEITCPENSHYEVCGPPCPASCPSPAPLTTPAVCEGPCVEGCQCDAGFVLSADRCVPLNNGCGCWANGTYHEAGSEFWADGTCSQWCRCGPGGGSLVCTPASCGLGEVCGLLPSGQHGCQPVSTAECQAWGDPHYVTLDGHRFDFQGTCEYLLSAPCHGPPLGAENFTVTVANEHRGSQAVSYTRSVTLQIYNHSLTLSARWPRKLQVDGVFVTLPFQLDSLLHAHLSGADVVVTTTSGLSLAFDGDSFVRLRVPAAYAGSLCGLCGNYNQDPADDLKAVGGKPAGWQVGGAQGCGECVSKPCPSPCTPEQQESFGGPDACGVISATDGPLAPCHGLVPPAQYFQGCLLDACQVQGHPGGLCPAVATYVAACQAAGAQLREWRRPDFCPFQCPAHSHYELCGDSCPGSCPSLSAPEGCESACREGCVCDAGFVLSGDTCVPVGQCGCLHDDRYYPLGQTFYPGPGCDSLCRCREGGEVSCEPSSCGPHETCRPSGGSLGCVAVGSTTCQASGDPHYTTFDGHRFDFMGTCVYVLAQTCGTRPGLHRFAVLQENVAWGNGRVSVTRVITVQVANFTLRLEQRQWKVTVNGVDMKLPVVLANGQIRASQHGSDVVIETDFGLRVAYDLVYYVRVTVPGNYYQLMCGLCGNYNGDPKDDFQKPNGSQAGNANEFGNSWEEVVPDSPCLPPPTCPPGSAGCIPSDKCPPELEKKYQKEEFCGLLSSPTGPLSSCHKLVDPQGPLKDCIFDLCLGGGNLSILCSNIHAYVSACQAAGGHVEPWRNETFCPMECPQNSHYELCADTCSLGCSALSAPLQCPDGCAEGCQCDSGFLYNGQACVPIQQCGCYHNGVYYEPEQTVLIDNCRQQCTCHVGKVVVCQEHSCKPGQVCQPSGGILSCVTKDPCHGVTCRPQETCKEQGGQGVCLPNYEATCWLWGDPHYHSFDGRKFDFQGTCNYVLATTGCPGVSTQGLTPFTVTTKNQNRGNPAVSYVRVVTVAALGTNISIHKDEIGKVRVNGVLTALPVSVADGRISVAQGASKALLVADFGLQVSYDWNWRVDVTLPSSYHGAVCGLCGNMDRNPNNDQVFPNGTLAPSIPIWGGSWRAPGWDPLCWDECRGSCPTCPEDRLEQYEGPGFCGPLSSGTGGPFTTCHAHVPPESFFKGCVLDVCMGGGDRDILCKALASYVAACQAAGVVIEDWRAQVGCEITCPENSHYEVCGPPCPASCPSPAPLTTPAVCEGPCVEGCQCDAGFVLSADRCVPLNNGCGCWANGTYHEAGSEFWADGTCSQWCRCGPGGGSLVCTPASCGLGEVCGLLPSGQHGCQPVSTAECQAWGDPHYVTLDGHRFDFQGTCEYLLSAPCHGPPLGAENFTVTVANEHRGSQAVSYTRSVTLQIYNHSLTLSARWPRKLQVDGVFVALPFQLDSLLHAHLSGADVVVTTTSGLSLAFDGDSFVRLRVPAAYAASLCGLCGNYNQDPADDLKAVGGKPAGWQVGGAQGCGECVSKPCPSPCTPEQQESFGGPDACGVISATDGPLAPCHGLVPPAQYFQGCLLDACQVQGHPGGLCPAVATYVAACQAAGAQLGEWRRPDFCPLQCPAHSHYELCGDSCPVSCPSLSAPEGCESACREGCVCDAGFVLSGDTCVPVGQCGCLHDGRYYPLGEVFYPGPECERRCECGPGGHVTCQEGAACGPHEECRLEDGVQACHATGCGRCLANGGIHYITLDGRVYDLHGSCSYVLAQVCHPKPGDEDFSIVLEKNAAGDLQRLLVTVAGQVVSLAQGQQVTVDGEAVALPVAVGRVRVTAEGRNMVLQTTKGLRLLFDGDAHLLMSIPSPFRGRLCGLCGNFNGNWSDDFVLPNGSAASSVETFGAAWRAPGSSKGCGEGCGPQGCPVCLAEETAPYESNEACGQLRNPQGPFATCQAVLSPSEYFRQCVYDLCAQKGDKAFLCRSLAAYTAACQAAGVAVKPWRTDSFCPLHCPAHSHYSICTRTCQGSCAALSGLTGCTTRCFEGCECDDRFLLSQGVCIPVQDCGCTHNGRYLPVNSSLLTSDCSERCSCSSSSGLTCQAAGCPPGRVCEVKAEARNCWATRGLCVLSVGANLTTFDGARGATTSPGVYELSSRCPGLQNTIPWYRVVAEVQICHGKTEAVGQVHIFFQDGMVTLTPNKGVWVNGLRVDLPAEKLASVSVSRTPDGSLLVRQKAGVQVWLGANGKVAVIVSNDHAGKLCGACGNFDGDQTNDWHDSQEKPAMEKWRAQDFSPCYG
# Legend:
# [1] = molecular target: TFF3 (trefoil factor family peptide 3) (human (endogenous in saliva)) (UniProt Q07654); test: SDS-PAGE under non-reducing versus reducing conditions with Western blot; low-molecular-mass SEC fractions of saliva (Superdex 75 HL; some also after Resource Q6 anion exchange); 15% SDS-PAGE, anti-TFF3 Western blot; 18k band non-reduced, 7k band reduced
# [2] = molecular target: IgG Fc binding protein (FCGBP) (human (endogenous in saliva)) (UniProt Q9Y6R7); test: native gel or EMSA; saliva of three individuals separated by SEC (Superdex 75 HL; 20 mM Tris-HCl pH 7.0, 30 mM NaCl); high-molecular-mass fractions B7 run on 1% non-denaturing agarose gel (0.1% SDS) and Western blotted with antisera against TFF3 and FCGBP; both recognized the same bands
binder,measurement,setting,value
"TFF3 (trefoil factor family peptide 3) (protein, UniProt Q07654 22-80) EEYVGLSANQCAVPAKDRVDCGYPHVTPKECNNRGCCFDSRIPGVPWCFKPLQEAECTF",binding,[1],binds
same,binding,[2],binds

# From paper PMC6834163
